# Laboratory results published in article PMC3700381.
# These are yes or no findings as the source states them, for the method shown. In cells and extracts the contact can be indirect. Some entries that bind do so weakly or less than the wild type.
# T1: AtSEOb (Arabidopsis sieve element occlusion protein b) (Arabidopsis) (UniProt Q9SS87)
# T1 sequence: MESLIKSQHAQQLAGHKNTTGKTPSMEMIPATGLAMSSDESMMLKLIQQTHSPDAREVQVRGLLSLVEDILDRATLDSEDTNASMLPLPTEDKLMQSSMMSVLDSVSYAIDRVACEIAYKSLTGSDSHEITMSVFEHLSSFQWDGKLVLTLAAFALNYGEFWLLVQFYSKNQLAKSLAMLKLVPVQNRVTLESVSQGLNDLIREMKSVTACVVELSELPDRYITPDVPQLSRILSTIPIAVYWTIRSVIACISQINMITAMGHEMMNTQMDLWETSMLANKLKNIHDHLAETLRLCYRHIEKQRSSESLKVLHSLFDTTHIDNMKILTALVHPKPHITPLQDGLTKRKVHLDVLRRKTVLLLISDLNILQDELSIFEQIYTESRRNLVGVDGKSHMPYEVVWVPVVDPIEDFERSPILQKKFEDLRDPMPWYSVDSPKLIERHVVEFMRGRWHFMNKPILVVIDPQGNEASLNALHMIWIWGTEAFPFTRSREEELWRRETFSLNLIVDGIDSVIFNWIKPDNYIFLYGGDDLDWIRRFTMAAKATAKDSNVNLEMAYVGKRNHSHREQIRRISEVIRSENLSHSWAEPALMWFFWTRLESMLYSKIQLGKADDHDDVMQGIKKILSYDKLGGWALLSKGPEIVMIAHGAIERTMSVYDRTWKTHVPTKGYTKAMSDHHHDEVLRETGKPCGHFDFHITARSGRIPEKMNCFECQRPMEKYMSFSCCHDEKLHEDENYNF
# Legend:
# [1] = target: T1, AtSEOb (Arabidopsis sieve element occlusion protein b) (Arabidopsis); experiment: split reporter; BiFC with split mRFP1-Q66T fusions co-expressed in N. benthamiana epidermal cells by agroinfiltration (with p19 silencing repressor); leaf discs analysed by CLSM after 3 days
# [2] = target: AtSEOa (Arabidopsis sieve element occlusion protein a) (Arabidopsis) (UniProt Q93XX2); experiment: as above
binding [1],binding [2],Binder
binds,–,"AtSEOb (Arabidopsis sieve element occlusion protein b) (protein, UniProt Q9SS87 1-740) MESLIKSQHAQQLAGHKNTTGKTPSMEMIPATGLAMSSDESMMLKLIQQTHSPDAREVQVRGLLSLVEDILDRATLDSEDTNASMLPLPTEDKLMQSSMMSVLDSVSYAIDRVACEIAYKSLTGSDSHEITMSVFEHLSSFQWDGKLVLTLAAFALNYGEFWLLVQFYSKNQLAKSLAMLKLVPVQNRVTLESVSQGLNDLIREMKSVTACVVELSELPDRYITPDVPQLSRILSTIPIAVYWTIRSVIACISQINMITAMGHEMMNTQMDLWETSMLANKLKNIHDHLAETLRLCYRHIEKQRSSESLKVLHSLFDTTHIDNMKILTALVHPKPHITPLQDGLTKRKVHLDVLRRKTVLLLISDLNILQDELSIFEQIYTESRRNLVGVDGKSHMPYEVVWVPVVDPIEDFERSPILQKKFEDLRDPMPWYSVDSPKLIERHVVEFMRGRWHFMNKPILVVIDPQGNEASLNALHMIWIWGTEAFPFTRSREEELWRRETFSLNLIVDGIDSVIFNWIKPDNYIFLYGGDDLDWIRRFTMAAKATAKDSNVNLEMAYVGKRNHSHREQIRRISEVIRSENLSHSWAEPALMWFFWTRLESMLYSKIQLGKADDHDDVMQGIKKILSYDKLGGWALLSKGPEIVMIAHGAIERTMSVYDRTWKTHVPTKGYTKAMSDHHHDEVLRETGKPCGHFDFHITARSGRIPEKMNCFECQRPMEKYMSFSCCHDEKLHEDENYNF"
binds,binds,"AtSEOa (Arabidopsis sieve element occlusion protein a) (protein, UniProt Q93XX2 1-822) MAQRFQLNSQTLPTADPLKRVSLIPRSAEQRLADNAGERRPLAPRSHEDNPFGGHTDDHHVAAPADHNKVMDHNSENLGSIVPKTAHYPHPSEEILDANIRHSMVPKSLGPNSLGGRFGPGKKQAFHRNGRPMFSLSDDRVMADRVLKTHSPDMIFFDVTSLLSVVNDIFKSHVPSIDSSAPKPSLVFKDYADHTSFETFADLIDQISCEIDCKCLHGGESHGMMTSGLHLDSRNTTTFSVLSLVSKYRWDAKLVLVLSALAVKYGVFLLLAETHATNQLTKSLALIKQLPSIFSRQNALHQRLDKTRILMQDMVDLTTTIIDIYQLPPNHITAAFTDHIPTAVYWIVRCVLICVSHISGASGFKQDQIMSFMEVSEIHENSERLRKINAYLLEQFKKSKMTIEEGIIEEEYQELIQTFTTIIHVDVVPPLLRLLRPIDFLYHGAGVSKRRVGINVLTQKHVLLLISDLENIEKELYILESLYTEAWQQSFEILWVPVQDFWTEADDAKFEALHMNMRWYVLGEPRKLRRAAIRFVREWWGFKNRPILVALDPKGQVMSTNAFPMVWIWQPFAHPFTTARERDLWSEQEWNLEFLIDGTDPHSLNQLVDGKYICLYGGEDMQWIKNFTSLWRNVAKAANIQLEMVYVGKRNPKNGIQPIINTIREENLSHTLPDLFQIWFFWTRVESMWESKQRMLKAHGIKGREGFKEEEKDLVLQEVVAMLGYGGEGDGWGLVSKASDMMVRAKGNLFSRGLAEFNEWEVNIPTKGFLTALNDHLLMRLPPHHCTRFMLPETAGIIPNEVECTECRRTMEKYYLYQCCLE"
